# Reference: the supplement of paper PMC8728848
# The list shows a part of the results.
# Experiments:
# Test in all cases: glycan array binding signal (z-score within array); higher = stronger binding
# Settings in all cases: glycan notation: IUPAC condensed, linker removed
# [1] = biological target: Neu5Ac(a2-6)Gal(b1-4)GlcNAc(b1-6)GalNAc
# How it was run: (§1)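 The Consortium for Functional Glycomics database supplied 3228 glycan arrays, of which those lacking an available protein sequence were dropped. The binding signal, a within-array Z-score, was averaged across arrays of the same protein sequence and across linkers. Negative scores can be read as non-binding.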
# [2] = biological target: Neu5Ac(a2-6)Gal(b1-4)GlcNAc(b1-6)[Gal(b1-3)GlcNAc(b1-3)]Gal(b1-4)Glc
# How it was run: as §1
# [3] = biological target: Neu5Ac(a2-6)Gal(b1-4)GlcNAc(b1-6)[Gal(b1-3)]GalNAc
# How it was run: as §1
# [4] = biological target: Neu5Ac(a2-6)Gal(b1-4)GlcNAc6S
# How it was run: as §1
# Neu5Ac(a2-6)GalNAc = biological target: Neu5Ac(a2-6)GalNAc
# How it was run: as §1
# [5] = biological target: Neu5Ac(a2-6)GalNAc(b1-4)GlcNAc
# How it was run: as §1
# [6] = biological target: Neu5Ac(a2-6)GalNAc(b1-4)GlcNAc6S
# How it was run: as §1
# [7] = biological target: Neu5Ac(a2-6)GlcNAc(b1-4)GlcNAc
# How it was run: as §1
# [8] = biological target: Neu5Ac(a2-6)GlcNAc(b1-4)GlcNAc(b1-4)GlcNAc
# How it was run: as §1
# Neu5Ac(a2-8)Neu5Ac = biological target: Neu5Ac(a2-8)Neu5Ac
# How it was run: as §1
# [9] = biological target: Neu5Ac(a2-8)Neu5Ac(a2-3)Gal(b1-3)GalNAc(b1-4)[Neu5Ac(a2-3)]Gal(b1-4)Glc
# How it was run: as §1
# [10] = biological target: Neu5Ac(a2-8)Neu5Ac(a2-3)Gal(b1-3)GalNAc(b1-4)[Neu5Ac(a2-8)Neu5Ac(a2-3)]Gal(b1-4)Glc
# How it was run: as §1
# [11] = biological target: Neu5Ac(a2-8)Neu5Ac(a2-3)Gal(b1-4)Glc
# How it was run: as §1
# [12] = biological target: Neu5Ac(a2-8)Neu5Ac(a2-3)Gal(b1-4)GlcNAc
# How it was run: as §1
# [13] = biological target: Neu5Ac(a2-8)Neu5Ac(a2-3)[Gal(b1-3)GalNAc(b1-4)]Gal(b1-4)Glc
# How it was run: as §1
# [14] = biological target: Neu5Ac(a2-8)Neu5Ac(a2-3)[GalNAc(b1-4)]Gal(b1-4)Glc
# How it was run: as §1
# [15] = biological target: Neu5Ac(a2-8)Neu5Ac(a2-8)Neu5Ac
# How it was run: as §1
# [16] = biological target: Neu5Ac(a2-8)Neu5Ac(a2-8)Neu5Ac(a2-3)Gal(b1-4)Glc
# How it was run: as §1
# [17] = biological target: Neu5Ac(a2-8)Neu5Ac(a2-8)Neu5Ac(a2-3)[Gal(b1-3)GalNAc(b1-4)]Gal(b1-4)Glc
# How it was run: as §1
# [18] = biological target: Neu5Ac(a2-8)Neu5Ac(a2-8)Neu5Ac(a2-3)[GalNAc(b1-4)]Gal(b1-4)Glc
# How it was run: as §1
# [19] = biological target: Neu5Ac(a2-8)Neu5Ac(a2-8)Neu5Ac(a2-8)Neu5Ac(a2-3)[GalNAc(b1-4)]Gal(b1-4)Glc
# How it was run: as §1
# [20] = biological target: Neu5Ac(a2-8)Neu5Gc(a2-3)Gal(b1-4)GlcNAc
# How it was run: as §1
# [21] = biological target: Neu5Ac(b2-6)Gal(b1-4)GlcNAc
# How it was run: as §1
# Neu5Ac(b2-6)GalNAc = biological target: Neu5Ac(b2-6)GalNAc
# How it was run: as §1
# [22] = biological target: Neu5Ac9Ac(a2-3)Gal(b1-3)GlcNAc
# How it was run: as §1
# [23] = biological target: Neu5Ac9Ac(a2-3)Gal(b1-4)GlcNAc
# How it was run: as §1
# [24] = biological target: Neu5Ac9Ac(a2-6)Gal(b1-4)GlcNAc
# How it was run: as §1
# [25] = biological target: Neu5Gc(a2-3)Gal(b1-3)GlcNAc
# How it was run: as §1
# [26] = biological target: Neu5Gc(a2-3)Gal(b1-3)[Fuc(a1-4)]GlcNAc
# How it was run: as §1
# Neu5Gc(a2-3)Gal(b1-4)Glc = biological target: Neu5Gc(a2-3)Gal(b1-4)Glc
# How it was run: as §1
# [27] = biological target: Neu5Gc(a2-3)Gal(b1-4)GlcNAc
# How it was run: as §1
# [28] = biological target: Neu5Gc(a2-3)Gal(b1-4)GlcNAc(b1-3)Gal(b1-4)GlcNAc(b1-2)Man(a1-3)[Neu5Gc(a2-3)Gal(b1-4)GlcNAc(b1-3)Gal(b1-4)GlcNAc(b1-2)Man(a1-6)]Man(b1-4)GlcNAc(b1-4)GlcNAc
# How it was run: as §1
# [29] = biological target: Neu5Gc(a2-3)Gal(b1-4)[Fuc(a1-3)]GlcNAc
# How it was run: as §1
# [30] = biological target: Neu5Gc(a2-6)Gal(b1-4)GlcNAc
# How it was run: as §1
# Neu5Gc(a2-6)GalNAc = biological target: Neu5Gc(a2-6)GalNAc
# How it was run: as §1
# [31] = biological target: Neu5Gc(a2-8)Neu5Ac(a2-3)Gal(b1-4)GlcNAc
# How it was run: as §1
# [32] = biological target: Neu5Gc(a2-8)Neu5Gc(a2-3)Gal(b1-4)GlcNAc
# How it was run: as §1
# [33] = biological target: Neu5Gc(a2-8)Neu5Gc(a2-3)Gal(b1-4)GlcNAc(b1-3)Gal(b1-4)GlcNAc
# How it was run: as §1
binder,measurement,setting,value
"Clec18Av1 (Homo sapiens), A5D8T8 (protein) MLHPETSPGRGHLLAVLLALLGTAWAEVWPPQLQEQAPMAGALNRKESFLLLSLHNRLRSWVQPPAADMRRLDWSDSLAQLAQARAALCGTPTPSLASGLWRTLQVGWNMQLLPAGLVSFVEVVSLWFAEGQRYSHAAGECARNATCTHYTQLVWATSSQLGCGRHLCSAGQAAIEAFVCAYSPRGNWEVNGKTIVPYKKGAWCSLCTASVSGCFKAWDHAGGLCEVPRNPCRMSCQNHGRLNISTCHCHCPPGYTGRYCQVRCSLQCVHGRFREEECSCVCDIGYGGAQCATKVHFPFHTCDLRIDGDCFMVSSEADTYYRARMKCQRKGGVLAQIKSQKVQDILAFYLGRLETTNEVIDSDFETRNFWIGLTYKTAKDSFRWATGEHQAFTSFAFGQPDNHGFGNCVELQASAAFNWNDQRCKTRNRYICQFAQEHISRWGPGS",glycan array binding signal (z-score),[1],-0.777
same,glycan array binding signal (z-score),[2],0.581
same,glycan array binding signal (z-score),[3],0.511
same,glycan array binding signal (z-score),[4],-0.665
same,glycan array binding signal (z-score),Neu5Ac(a2-6)GalNAc,0.333
same,glycan array binding signal (z-score),[5],-0.849
same,glycan array binding signal (z-score),[6],-0.221
same,glycan array binding signal (z-score),[7],-0.857
same,glycan array binding signal (z-score),[8],-0.734
same,glycan array binding signal (z-score),Neu5Ac(a2-8)Neu5Ac,-0.782
same,glycan array binding signal (z-score),[9],-0.337
same,glycan array binding signal (z-score),[10],1.85
same,glycan array binding signal (z-score),[11],-0.829
same,glycan array binding signal (z-score),[12],-0.874
same,glycan array binding signal (z-score),[13],1.9
same,glycan array binding signal (z-score),[14],0.368
same,glycan array binding signal (z-score),[15],-0.842
same,glycan array binding signal (z-score),[16],-0.855
same,glycan array binding signal (z-score),[17],-0.855
same,glycan array binding signal (z-score),[18],2.28
same,glycan array binding signal (z-score),[19],1.57
same,glycan array binding signal (z-score),[20],-0.877
same,glycan array binding signal (z-score),[21],1.02
same,glycan array binding signal (z-score),Neu5Ac(b2-6)GalNAc,-0.283
same,glycan array binding signal (z-score),[22],-0.864
same,glycan array binding signal (z-score),[23],-0.829
same,glycan array binding signal (z-score),[24],-0.823
same,glycan array binding signal (z-score),[25],-0.775
same,glycan array binding signal (z-score),[26],-0.646
same,glycan array binding signal (z-score),Neu5Gc(a2-3)Gal(b1-4)Glc,-0.738
same,glycan array binding signal (z-score),[27],-0.845
same,glycan array binding signal (z-score),[28],0.566
same,glycan array binding signal (z-score),[29],-0.565
same,glycan array binding signal (z-score),[30],-0.844
same,glycan array binding signal (z-score),Neu5Gc(a2-6)GalNAc,0.959
same,glycan array binding signal (z-score),[31],-0.821
same,glycan array binding signal (z-score),[32],-0.855
same,glycan array binding signal (z-score),[33],-0.754
